Source: PMC5457515
Results are given in words; binding and its absence hold for the method and conditions named. In cells and extracts the contact can be indirect. Some entries that bind do so weakly or less than the wild type. For some of these results: Sequences can lack the tags named with a protein.

Sequences of proteins named here, by UniProt entry; tags and fusion partners are left off.
UniProt Q86WV6: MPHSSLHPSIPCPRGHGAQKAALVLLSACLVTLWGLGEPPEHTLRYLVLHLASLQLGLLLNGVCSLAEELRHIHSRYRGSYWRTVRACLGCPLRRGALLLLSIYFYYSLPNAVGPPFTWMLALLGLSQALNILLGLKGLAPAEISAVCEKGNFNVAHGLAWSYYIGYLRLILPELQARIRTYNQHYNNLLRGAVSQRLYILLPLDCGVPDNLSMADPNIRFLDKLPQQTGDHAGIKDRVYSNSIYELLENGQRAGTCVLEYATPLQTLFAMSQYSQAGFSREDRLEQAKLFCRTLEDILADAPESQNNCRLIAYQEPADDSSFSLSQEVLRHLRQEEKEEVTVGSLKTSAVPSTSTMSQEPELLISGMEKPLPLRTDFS
UniProt P45974: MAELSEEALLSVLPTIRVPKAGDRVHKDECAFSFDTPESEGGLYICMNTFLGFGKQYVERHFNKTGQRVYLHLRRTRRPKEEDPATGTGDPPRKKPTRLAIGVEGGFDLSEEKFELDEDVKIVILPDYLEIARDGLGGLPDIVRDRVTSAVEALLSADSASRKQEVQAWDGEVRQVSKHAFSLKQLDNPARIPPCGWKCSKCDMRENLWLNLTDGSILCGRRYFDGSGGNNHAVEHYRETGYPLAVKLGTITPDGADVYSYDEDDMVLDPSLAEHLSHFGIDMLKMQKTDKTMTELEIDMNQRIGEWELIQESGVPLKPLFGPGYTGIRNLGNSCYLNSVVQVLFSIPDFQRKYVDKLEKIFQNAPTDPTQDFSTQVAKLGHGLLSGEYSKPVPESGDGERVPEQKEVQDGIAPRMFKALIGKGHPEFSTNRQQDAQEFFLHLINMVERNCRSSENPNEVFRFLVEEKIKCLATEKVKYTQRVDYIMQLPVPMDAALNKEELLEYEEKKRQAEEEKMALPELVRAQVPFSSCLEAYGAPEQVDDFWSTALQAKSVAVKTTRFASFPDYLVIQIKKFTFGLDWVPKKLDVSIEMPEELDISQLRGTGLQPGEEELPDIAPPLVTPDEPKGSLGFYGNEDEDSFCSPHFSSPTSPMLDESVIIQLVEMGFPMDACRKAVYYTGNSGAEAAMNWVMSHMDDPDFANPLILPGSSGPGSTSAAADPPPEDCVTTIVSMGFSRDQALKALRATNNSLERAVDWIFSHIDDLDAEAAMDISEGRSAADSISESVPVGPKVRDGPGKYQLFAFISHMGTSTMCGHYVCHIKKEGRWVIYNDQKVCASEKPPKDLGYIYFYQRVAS
UniProt Q9UKV5: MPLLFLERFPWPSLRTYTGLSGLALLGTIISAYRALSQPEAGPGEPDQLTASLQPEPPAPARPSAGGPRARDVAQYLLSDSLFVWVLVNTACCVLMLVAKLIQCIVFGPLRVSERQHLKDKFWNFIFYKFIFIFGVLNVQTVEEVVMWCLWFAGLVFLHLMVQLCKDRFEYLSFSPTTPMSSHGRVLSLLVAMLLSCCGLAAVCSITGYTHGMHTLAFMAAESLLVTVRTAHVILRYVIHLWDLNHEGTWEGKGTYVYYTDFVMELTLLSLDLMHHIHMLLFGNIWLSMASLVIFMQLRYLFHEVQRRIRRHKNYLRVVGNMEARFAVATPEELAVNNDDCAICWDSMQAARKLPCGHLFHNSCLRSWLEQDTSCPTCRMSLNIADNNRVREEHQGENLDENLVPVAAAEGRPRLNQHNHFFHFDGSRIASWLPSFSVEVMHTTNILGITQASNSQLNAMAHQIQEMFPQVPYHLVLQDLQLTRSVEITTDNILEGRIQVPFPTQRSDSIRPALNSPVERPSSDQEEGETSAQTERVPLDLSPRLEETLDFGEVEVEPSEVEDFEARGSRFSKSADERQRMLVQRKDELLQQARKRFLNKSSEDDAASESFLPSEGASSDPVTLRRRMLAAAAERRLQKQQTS
UniProt Q13049: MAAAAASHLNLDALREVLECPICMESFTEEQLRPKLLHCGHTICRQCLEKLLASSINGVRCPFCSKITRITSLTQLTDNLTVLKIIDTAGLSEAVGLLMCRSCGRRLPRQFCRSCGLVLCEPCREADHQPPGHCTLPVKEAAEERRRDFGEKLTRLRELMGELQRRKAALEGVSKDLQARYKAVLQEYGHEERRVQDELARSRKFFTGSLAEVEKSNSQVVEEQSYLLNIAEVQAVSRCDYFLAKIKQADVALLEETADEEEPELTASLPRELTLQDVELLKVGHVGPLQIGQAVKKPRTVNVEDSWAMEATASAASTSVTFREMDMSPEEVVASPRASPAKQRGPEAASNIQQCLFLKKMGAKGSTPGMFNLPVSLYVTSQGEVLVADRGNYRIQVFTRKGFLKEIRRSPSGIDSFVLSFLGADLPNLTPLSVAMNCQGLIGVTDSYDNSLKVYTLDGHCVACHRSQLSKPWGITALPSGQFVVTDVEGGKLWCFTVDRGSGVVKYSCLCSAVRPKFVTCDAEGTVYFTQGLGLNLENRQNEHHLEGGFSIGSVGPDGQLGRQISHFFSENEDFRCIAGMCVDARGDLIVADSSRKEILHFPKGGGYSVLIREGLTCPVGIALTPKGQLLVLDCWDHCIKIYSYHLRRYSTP

What was measured:
[1] = biological target: STING, overexpressed (Supplementary Figs 6a and 9c) (UniProt Q86WV6); test: co-IP; association of STING with AMFR or TRIM32, with USP13 (Supplementary Fig. 6a; legend not shown)
[2] = biological target: T1, FLAG-tagged ubiquitin-specific protease 13 (USP13) (UniProt Q92995); test: co-IP; HEK293 cells transfected 24 h with FLAG-tagged USPs and HA-STING; IP with anti-FLAG, blot with anti-FLAG and anti-HA; lysis buffer 20 mM Tris-HCl pH 7.4-7.5, 150 mM NaCl, 1 mM EDTA, 1% Nonidet P-40
T1 sequence: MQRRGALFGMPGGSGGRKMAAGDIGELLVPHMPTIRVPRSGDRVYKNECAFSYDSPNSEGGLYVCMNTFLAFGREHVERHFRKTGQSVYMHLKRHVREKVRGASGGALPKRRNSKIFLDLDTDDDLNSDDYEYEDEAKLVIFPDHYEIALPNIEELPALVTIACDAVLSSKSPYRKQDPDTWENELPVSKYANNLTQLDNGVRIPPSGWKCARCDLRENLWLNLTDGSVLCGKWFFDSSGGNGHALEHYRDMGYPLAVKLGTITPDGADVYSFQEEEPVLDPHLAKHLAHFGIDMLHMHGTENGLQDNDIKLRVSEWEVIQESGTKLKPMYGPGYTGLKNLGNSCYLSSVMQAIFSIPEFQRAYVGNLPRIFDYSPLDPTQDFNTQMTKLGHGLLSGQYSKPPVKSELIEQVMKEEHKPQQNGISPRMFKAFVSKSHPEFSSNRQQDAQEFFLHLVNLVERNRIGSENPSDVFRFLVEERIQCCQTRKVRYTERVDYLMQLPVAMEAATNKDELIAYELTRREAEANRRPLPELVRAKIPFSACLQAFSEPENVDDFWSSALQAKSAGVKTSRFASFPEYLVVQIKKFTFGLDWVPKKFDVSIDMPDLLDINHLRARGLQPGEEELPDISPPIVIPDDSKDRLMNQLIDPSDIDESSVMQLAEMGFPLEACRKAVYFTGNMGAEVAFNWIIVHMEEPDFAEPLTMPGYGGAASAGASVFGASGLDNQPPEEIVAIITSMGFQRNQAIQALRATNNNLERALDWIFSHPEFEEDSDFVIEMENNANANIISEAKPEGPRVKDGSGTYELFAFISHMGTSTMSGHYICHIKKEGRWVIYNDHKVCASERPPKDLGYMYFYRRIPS

FLAG-tagged USP5 = FLAG-tagged USP5 (UniProt P45974); test: as above

binding [1]	binding [2]	binding (FLAG-tagged USP5)	Substance
binds	–	–	AMFR (from UniProt Q9UKV5 1-643) (enzyme)
–	binds	no binding	HA-STING (from UniProt Q86WV6 1-379)
binds	–	–	TRIM32 (from UniProt Q13049 1-653) (enzyme)
